Measured values taken from US20190041390A1.
These are yes or no findings as the source states them, for the method shown. Some entries that bind do so weakly or less than the wild type.

Target: synthetic rVλ6Wil fibrils (human)
Assay: solution-phase pulldown, 125I-labelled protein, 1 h, 3 h, 24 h

- binding: binds
B1: rVλ6Wil monomer (recombinant λ6 light chain variable domain from patient Wil) (protein)
VL: NFLLTQPHSVSESPGKTVTISCTRSSGSIANNYVHWYQQRPGSSPTTVIFEDDHRPSGVPDRFSGSVDTSSNSASLTISGLKTEDEADYYCQSYDHNNQVFGGGTKLTVLG
